Measurements from patent US20050025795A1, “Compounds, Compositions and methods for insect control” (The Procter & Gamble Company, priority 2003, published 2005).
Where two headings read alike, the source gives them in different places. Some entries share one result that the patent states for a list of compounds.

Tested on: roaches
Type: in vivo, cockroaches
Procedure: An ˜500 mL jar is coated at the top with a thin film of petroleum jelly and covered with a plastic petri dish as a lid. […] The filter paper is bent in half to form a ‘tent’, as shown, so the roaches are not forced to contact the filter paper. The lid is removed, and a compound or composition to be tested is added to the top of the paper, at the bend. The lid is replaced and the insects monitored for activity at 15, 30, 45 minutes, then 1, 2, 4 and 24 hours post exposure.
This is done by taking multiple testes and plotting them on a dose-response curve such as the GraphPad® Prism® computer program. This program interpolates to find the midpoint of any sigmoidal dose-response curve.
The data in Table 1 can graphed as a sigmoidal dose response, much the same as any other biological data. […] The mid-Point of the dose-response curve is given by the computer and used to compare potencies. […] It is also necessary to understand the range of the testing. While the lower limit is in the 1 to 3 microliter range, the upper limit is about 250 microliters. Adding more material than that to the filter paper will allow the substance to drip onto the glass, where contact with the insects might occur. […] Several compounds are tested in a 2 liter (L) jar rather than the 0.5 L jars which are the primary assay.

Row | SMILES | LD50 (vapor phase) (~500 mL jar) | LD50 (vapor phase) (in vivo)
1 | O=C/C=C/c1ccccc1 [trans cinnamaldehyde, reference compound] | > 100 milligrams/500 milliliters | –
2 | CC=Cc1ccc(O)c(OC)c1 [isoeugenol, reference compound] | – | > 100 milligrams/500 milliliters
